{"source": "PubChem BioAssay AID1259308 (NCATS, 2017)", "purpose": "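Knock-downs that increase output of a recombinant reporter protein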 (primary screen)", "cell system": "human HEK293 embryonic kidney cells stably expressing firefly luciferase (HEK-CMV-Luc2-Hygro)", "reagent": "single siRNA against human genes, 0.8 pmol siRNA per well", "timing": "72 h", "read-out": "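Luciferase light (ONE-Glo) measured on one replicate plate set and viability (CellTiter-Glo) on the other, scaled to a negative control siRNA, with robust z-scores and luciferase per cell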", "scale": "total luciferase, z-score and total luciferase, % of control: higher = more reporter protein produced", "call rule": "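Active when the median/MAD z-score for overall luciferase is greater than 3; a gene was taken forward for validation with new siRNAs if at least two of its three siRNAs passed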", "meaning of the calls": "active = raised luciferase; inactive = no rise", "note": "In all, the deposit lists about 59,000 reagents; shown is a part drawn at random. About 1,510 of all reagents (2.6%) count as active. 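Calls use total luciferase alone and ignore viability, so some active siRNAs may act by altering cell number.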 Reagents against one gene are numbered here. Further read-outs or replicates are left out here."}
{"gene knocked down": "TMLHE", "reagent no.": 1, "total luciferase, z-score": 0.779, "total luciferase, % of control": 97.4, "Call": "inactive"}
{"gene knocked down": "TMLHE", "reagent no.": 2, "total luciferase, z-score": 0.521, "total luciferase, % of control": 92.2, "Call": "inactive"}
{"gene knocked down": "TMLHE", "reagent no.": 3, "total luciferase, z-score": -0.982, "total luciferase, % of control": 62.4, "Call": "inactive"}
{"gene knocked down": "CD5L", "reagent no.": 1, "total luciferase, z-score": 0.0257, "total luciferase, % of control": 82.4, "Call": "inactive"}
{"gene knocked down": "CD5L", "reagent no.": 2, "total luciferase, z-score": 0.441, "total luciferase, % of control": 90.6, "Call": "inactive"}
{"gene knocked down": "CD5L", "reagent no.": 3, "total luciferase, z-score": 0.339, "total luciferase, % of control": 88.6, "Call": "inactive"}

Next part, starting with the last 2 of the part before.
{"gene knocked down": "CD5L", "reagent no.": 2, "total luciferase, z-score": 0.441, "total luciferase, % of control": 90.6, "Call": "inactive"}
{"gene knocked down": "CD5L", "reagent no.": 3, "total luciferase, z-score": 0.339, "total luciferase, % of control": 88.6, "Call": "inactive"}
{"gene knocked down": "RAB37", "reagent no.": 1, "total luciferase, z-score": 0.285, "total luciferase, % of control": 87.6, "Call": "inactive"}
{"gene knocked down": "RAB37", "reagent no.": 2, "total luciferase, z-score": -1.17, "total luciferase, % of control": 58.6, "Call": "inactive"}
{"gene knocked down": "RAB37", "reagent no.": 3, "total luciferase, z-score": -0.639, "total luciferase, % of control": 69.2, "Call": "inactive"}
{"gene knocked down": "DSCR4", "reagent no.": 1, "total luciferase, z-score": -2.26, "total luciferase, % of control": 37, "Call": "inactive"}
{"gene knocked down": "DSCR4", "reagent no.": 2, "total luciferase, z-score": -1.04, "total luciferase, % of control": 61.3, "Call": "inactive"}
{"gene knocked down": "DSCR4", "reagent no.": 3, "total luciferase, z-score": 0.00235, "total luciferase, % of control": 81.9, "Call": "inactive"}
